The list shows a part of the results. The data scatter; read single values as rough.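 Tm was set to 64 °C where no melting was found, and many curves are irregular.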
The targets below were run with CCc1cnccc1C(=O)Nc1cc2c(cc1F)NC(=O)CC2 (assay: melting temperature shift (DMSO Tm minus MBE1-treated Tm) in cellular thermal proteome profiling; higher = less thermal stabilization by MBE1 (negative = stabilized by MBE1)). Conditions: A375; MBE1 concentration: 100 nM.

Protein sequences, listed by entry. Tags and fused reporters are not part of them. Lines headed by an entry give the natural chain unless they say otherwise; changes in a name come on top.
UniProt Q5THJ4: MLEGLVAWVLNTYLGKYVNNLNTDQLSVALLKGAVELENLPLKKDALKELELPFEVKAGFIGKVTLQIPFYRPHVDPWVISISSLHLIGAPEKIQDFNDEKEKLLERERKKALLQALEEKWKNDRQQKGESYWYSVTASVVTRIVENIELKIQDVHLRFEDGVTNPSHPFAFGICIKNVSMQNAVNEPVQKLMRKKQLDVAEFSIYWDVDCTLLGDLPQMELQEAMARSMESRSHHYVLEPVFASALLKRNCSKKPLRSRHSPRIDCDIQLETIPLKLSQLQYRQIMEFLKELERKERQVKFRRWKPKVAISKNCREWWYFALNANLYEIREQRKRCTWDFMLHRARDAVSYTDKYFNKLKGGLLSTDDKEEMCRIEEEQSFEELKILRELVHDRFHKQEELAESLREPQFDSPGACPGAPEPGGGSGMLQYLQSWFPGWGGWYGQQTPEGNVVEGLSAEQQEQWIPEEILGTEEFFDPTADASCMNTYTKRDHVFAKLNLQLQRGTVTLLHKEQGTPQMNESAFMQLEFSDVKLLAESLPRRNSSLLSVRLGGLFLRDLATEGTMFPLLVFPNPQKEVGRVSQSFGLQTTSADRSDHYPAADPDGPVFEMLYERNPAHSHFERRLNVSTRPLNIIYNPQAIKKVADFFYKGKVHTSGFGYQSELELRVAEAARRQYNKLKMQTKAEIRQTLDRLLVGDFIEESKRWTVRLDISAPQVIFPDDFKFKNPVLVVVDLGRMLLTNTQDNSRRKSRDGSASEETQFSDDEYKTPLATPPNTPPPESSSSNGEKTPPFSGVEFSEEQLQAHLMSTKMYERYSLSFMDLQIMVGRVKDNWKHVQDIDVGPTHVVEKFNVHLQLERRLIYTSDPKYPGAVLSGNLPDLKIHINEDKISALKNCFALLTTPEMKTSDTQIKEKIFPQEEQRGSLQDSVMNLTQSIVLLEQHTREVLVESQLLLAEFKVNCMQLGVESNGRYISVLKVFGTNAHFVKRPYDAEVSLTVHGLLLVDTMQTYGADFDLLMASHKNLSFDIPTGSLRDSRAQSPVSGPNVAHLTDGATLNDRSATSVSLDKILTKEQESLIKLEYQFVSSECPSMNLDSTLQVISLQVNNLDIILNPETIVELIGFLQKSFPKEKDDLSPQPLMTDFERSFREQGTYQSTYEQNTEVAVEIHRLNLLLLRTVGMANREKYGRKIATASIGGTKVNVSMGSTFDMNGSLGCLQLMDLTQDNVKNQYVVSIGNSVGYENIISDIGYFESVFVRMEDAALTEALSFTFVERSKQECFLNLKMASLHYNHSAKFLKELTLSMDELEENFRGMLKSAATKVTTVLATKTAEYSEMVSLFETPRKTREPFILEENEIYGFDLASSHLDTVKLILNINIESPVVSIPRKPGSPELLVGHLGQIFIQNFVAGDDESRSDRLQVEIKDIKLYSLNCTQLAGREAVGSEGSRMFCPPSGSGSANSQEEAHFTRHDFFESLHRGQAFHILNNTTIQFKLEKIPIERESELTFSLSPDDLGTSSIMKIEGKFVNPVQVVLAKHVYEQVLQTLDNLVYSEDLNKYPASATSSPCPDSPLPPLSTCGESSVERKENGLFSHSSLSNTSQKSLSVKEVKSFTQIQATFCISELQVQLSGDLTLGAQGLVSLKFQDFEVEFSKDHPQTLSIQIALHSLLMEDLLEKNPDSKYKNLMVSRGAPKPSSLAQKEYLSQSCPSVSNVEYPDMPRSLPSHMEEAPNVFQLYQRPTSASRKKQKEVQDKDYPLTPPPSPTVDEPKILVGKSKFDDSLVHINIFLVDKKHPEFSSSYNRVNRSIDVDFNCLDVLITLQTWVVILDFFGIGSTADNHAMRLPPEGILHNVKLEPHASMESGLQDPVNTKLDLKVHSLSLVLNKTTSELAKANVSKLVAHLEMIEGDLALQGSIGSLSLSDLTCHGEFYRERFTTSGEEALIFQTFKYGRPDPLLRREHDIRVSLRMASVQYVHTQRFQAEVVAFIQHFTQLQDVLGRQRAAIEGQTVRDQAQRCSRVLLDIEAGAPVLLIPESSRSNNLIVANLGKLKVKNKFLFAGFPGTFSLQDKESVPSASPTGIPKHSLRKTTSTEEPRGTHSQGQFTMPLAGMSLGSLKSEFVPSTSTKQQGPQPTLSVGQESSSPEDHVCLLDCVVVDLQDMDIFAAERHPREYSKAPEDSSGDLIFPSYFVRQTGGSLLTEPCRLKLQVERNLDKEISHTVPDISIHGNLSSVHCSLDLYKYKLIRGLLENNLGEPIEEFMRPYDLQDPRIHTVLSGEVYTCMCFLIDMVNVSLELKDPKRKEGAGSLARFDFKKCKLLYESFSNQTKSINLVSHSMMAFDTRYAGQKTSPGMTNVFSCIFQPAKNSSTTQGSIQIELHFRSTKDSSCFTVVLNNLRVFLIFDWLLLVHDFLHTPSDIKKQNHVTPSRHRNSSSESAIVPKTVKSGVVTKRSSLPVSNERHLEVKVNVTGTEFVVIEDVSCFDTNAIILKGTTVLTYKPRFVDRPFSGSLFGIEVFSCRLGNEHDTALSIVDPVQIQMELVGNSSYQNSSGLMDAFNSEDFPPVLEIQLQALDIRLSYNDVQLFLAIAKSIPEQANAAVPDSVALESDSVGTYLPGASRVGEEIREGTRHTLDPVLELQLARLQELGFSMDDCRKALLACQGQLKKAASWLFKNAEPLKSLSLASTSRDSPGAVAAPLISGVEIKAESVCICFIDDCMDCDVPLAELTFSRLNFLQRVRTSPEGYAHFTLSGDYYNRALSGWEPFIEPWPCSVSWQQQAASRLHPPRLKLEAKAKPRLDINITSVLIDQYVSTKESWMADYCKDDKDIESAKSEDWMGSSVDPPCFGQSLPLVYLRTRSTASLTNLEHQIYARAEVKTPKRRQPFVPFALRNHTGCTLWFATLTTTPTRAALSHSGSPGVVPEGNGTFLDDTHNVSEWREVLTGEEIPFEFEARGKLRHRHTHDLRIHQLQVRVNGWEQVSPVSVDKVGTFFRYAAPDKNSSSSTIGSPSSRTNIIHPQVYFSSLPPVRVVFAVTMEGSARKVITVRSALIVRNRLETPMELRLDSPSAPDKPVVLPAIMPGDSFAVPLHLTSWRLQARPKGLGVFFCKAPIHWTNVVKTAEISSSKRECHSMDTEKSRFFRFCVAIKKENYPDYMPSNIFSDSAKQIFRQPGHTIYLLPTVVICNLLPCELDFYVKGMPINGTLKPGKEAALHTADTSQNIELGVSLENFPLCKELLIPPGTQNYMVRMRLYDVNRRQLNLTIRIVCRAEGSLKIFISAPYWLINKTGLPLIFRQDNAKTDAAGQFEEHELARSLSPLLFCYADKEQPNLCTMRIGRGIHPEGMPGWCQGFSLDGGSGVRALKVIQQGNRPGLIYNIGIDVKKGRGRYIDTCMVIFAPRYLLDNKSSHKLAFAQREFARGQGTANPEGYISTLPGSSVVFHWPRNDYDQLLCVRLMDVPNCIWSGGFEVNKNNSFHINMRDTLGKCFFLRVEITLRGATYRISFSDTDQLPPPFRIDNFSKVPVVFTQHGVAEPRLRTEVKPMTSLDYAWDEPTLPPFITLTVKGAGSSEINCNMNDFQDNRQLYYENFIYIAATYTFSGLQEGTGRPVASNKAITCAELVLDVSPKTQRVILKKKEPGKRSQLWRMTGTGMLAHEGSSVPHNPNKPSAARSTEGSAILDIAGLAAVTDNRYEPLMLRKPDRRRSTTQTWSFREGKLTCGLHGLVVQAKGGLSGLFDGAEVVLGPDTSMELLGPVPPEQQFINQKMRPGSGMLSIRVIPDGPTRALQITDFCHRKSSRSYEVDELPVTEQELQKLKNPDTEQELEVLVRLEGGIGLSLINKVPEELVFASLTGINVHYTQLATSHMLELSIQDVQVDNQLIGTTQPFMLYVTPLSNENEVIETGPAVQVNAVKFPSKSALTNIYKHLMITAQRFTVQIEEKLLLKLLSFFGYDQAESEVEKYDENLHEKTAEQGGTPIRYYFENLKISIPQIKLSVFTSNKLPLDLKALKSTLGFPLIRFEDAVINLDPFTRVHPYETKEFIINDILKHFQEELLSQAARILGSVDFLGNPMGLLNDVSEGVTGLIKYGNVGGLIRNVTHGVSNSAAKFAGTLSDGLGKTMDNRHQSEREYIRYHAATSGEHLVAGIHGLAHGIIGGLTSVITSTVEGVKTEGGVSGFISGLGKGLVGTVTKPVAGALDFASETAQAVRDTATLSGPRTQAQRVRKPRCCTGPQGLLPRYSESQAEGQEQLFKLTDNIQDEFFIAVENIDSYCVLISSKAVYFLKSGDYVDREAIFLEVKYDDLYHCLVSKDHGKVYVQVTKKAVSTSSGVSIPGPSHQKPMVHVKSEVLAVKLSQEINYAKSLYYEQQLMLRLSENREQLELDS
UniProt Q5XPI4: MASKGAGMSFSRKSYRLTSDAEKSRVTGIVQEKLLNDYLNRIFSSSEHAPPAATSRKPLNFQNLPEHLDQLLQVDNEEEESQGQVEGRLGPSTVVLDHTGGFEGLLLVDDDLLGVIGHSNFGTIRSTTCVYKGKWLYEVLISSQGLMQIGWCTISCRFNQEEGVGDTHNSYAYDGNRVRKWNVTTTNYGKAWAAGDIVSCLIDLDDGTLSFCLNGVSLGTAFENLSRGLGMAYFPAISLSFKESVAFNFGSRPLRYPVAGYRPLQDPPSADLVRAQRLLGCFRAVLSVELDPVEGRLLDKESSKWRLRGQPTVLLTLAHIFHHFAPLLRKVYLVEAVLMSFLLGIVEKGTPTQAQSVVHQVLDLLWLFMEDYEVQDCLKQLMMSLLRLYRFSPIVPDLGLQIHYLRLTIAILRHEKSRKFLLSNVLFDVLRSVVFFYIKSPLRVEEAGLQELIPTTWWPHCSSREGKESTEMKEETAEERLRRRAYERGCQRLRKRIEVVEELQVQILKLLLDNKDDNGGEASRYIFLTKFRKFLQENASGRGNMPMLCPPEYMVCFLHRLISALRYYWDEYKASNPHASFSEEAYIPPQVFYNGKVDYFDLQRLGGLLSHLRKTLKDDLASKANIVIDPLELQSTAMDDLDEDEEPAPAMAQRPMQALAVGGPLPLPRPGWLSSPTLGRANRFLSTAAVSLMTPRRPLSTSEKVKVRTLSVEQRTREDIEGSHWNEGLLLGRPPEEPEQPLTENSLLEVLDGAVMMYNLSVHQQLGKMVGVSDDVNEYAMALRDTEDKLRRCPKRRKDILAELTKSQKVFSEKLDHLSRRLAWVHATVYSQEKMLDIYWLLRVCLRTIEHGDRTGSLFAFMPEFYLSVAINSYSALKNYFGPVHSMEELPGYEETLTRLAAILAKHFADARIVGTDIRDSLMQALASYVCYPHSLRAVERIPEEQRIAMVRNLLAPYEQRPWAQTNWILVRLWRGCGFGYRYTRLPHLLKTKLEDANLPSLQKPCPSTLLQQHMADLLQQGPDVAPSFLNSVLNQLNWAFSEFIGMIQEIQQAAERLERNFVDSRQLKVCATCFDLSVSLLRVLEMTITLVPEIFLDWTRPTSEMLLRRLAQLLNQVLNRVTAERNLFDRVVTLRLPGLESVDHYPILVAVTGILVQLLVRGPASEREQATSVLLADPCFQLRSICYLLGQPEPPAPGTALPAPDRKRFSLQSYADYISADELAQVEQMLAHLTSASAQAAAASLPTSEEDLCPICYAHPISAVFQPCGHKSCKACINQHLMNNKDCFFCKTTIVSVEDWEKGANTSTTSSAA
UniProt Q6NYC8: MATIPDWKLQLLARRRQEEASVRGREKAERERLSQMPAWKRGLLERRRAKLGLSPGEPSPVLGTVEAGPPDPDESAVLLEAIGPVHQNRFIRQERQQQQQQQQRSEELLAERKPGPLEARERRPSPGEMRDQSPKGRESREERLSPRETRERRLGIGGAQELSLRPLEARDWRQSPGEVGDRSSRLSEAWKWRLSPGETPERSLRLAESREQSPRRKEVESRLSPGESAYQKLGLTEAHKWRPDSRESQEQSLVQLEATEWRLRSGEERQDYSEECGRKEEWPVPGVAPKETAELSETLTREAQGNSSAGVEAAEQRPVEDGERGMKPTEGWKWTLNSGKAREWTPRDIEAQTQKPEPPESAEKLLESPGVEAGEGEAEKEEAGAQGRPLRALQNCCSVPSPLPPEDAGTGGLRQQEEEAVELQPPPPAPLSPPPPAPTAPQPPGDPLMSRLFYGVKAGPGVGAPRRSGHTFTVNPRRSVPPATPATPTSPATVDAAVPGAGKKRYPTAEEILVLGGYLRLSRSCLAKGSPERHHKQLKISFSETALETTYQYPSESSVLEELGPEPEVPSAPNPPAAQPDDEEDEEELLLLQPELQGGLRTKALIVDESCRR
UniProt Q6NUK4: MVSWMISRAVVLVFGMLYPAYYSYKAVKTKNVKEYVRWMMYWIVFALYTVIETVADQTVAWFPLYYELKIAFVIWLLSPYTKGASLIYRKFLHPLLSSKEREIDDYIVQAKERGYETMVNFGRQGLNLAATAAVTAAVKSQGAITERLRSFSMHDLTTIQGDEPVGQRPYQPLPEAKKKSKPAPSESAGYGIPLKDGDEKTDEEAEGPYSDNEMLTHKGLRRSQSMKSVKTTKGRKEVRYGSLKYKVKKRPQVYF

Target	melting temperature shift [°C]
SAMD4B (UniProt Q5PRF9)	0.55
VPS13D (UniProt Q5THJ4)	0.26
NT5DC1 (UniProt Q5TFE4)	-0.153
MANEAL (UniProt Q5VSG8)	-1.03
ARHGAP17 (UniProt Q68EM7)	-0.08
UniProt Q68DK2	1.22
RC3H1 (UniProt Q5TC82)	-0.402
UniProt Q5XUX1	0.0469
RWDD4 (UniProt Q6NW29)	-1.97
NAA35 (UniProt Q5VZE5)	0.348
RNF123 (UniProt Q5XPI4)	0.128
PPP1R18 (UniProt Q6NYC8)	0.708
ARID2 (UniProt Q68CP9)	-0.282
FNBP1L (UniProt Q5T0N5)	0.617
BROX (UniProt Q5VW32)	-0.0141
UniProt Q6P6B7	4.65

Target	melting temperature shift [°C]
TYW3 (UniProt Q6IPR3)	-0.733
EOGT (UniProt Q5NDL2)	1.03
METTL10 (UniProt Q5JPI9)	0.694
KIAA1429 (UniProt Q69YN4)	-0.83
UniProt Q5JWF2	-1.37
RRP12 (UniProt Q5JTH9)	-0.0577
SH3D19 (UniProt Q5HYK7)	-0.402
UniProt Q5SZL2	-1.8
UniProt Q5VTQ0	-0.557
SLC27A4 (UniProt Q6P1M0)	0.164
MIA3 (UniProt Q5JRA6)	0.153
STXBP5 (UniProt Q5T5C0)	-15.1
UniProt Q6P4R8	0.128
VARS2 (UniProt Q5ST30)	1.47
MFSD5 (UniProt Q6N075)	-1.48

Same assay, conditions: A375; MBE1 concentration: 1 uM

Target	melting temperature shift [°C]
SAMD4B (UniProt Q5PRF9)	0.565
VPS13D (UniProt Q5THJ4)	0.443
NT5DC1 (UniProt Q5TFE4)	1.6
CD276 (UniProt Q5ZPR3)	0.644
MANEAL (UniProt Q5VSG8)	-0.0939
ARHGAP17 (UniProt Q68EM7)	0.16
UniProt Q68DK2	-0.275
RC3H1 (UniProt Q5TC82)	-1.84
UniProt Q5XUX1	0.238
RWDD4 (UniProt Q6NW29)	-0.595
NAA35 (UniProt Q5VZE5)	0.305
RNF123 (UniProt Q5XPI4)	-0.214
PPP1R18 (UniProt Q6NYC8)	0.769
ARID2 (UniProt Q68CP9)	-0.641
LRRC16A (UniProt Q5VZK9)	-0.165
FNBP1L (UniProt Q5T0N5)	0.134
BROX (UniProt Q5VW32)	-0.47
UniProt Q5TBA9	-0.0939

Target	melting temperature shift [°C]
UniProt Q6P6B7	0.403
TYW3 (UniProt Q6IPR3)	0.796
EOGT (UniProt Q5NDL2)	-0.805
METTL10 (UniProt Q5JPI9)	0.731
HYI (UniProt Q5T013)	-4.11
KIAA1429 (UniProt Q69YN4)	-0.0961
UniProt Q5JWF2	-1.19
RRP12 (UniProt Q5JTH9)	-0.173
SH3D19 (UniProt Q5HYK7)	-0.791
UniProt Q5SZL2	3.09
UniProt Q5VTQ0	0.828
SLC27A4 (UniProt Q6P1M0)	0.00891
MIA3 (UniProt Q5JRA6)	0.263
DCAF12 (UniProt Q5T6F0)	-0.39
UniProt Q6P4R8	0.41
VARS2 (UniProt Q5ST30)	0.476
REEP3 (UniProt Q6NUK4)	20.9
